Reference: US9938505B2, “Polypeptide composition and culture method for pluripotent stem cell using same” (FUJIFILM Corporation, priority 2013, dated 2018)
Some of these results come from one statement about several compounds together.

B1: RCP-17: recombinant polypeptide SEQ ID NO: 39; human vitronectin positions 1-55, 270-277, 295-341, 342-373, C274S (protein)
chain: MDQESCKGRCTEGFNVDKKCQCDELCSYYQSCCTDYTAECKPQVTRGDVFTMPEDESQEESEGSEDIFELLFWGRTSAGTRQPQFISRDWHGVPGQVDAAMAGRIYISGMAPRPSLAKKQRFRHRNRKGYRSQRGHSRGRNQN
modifications: Synthetic peptide RCP-17
notes: human vitronectin positions 1-55, 270-277, 295-341, 342-373, C274S
B2: RCP-2: recombinant polypeptide SEQ ID NO: 15; human vitronectin positions 1-55, 342-373 (protein)
chain: MDQESCKGRCTEGFNVDKKCQCDELCSYYQSCCTDYTAECKPQVTRGDVFTMPEDEPRPSLAKKQRFRHRNRKGYRSQRGHSRGRNQN
modifications: Synthetic peptide RCP-2
B3: RCP-3: recombinant polypeptide SEQ ID NO: 16; human vitronectin positions 1-55, 322-341, 342-373 (protein)
chain: MDQESCKGRCTEGFNVDKKCQCDELCSYYQSCCTDYTAECKPQVTRGDVFTMPEDEGVPGQVDAAMAGRIYISGMAPRPSLAKKQRFRHRNRKGYRSQRGHSRGRNQN
modifications: Synthetic peptide RCP-3
B4: RCP-4: recombinant polypeptide SEQ ID NO: 17; human vitronectin positions 1-55, 312-341, 342-373 (protein)
chain: MDQESCKGRCTEGFNVDKKCQCDELCSYYQSCCTDYTAECKPQVTRGDVFTMPEDEQPQFISRDWHGVPGQVDAAMAGRIYISGMAPRPSLAKKQRFRHRNRKGYRSQRGHSRGRNQN
modifications: Synthetic peptide RCP-4
B5: RCP-5: recombinant polypeptide SEQ ID NO: 18; human vitronectin positions 1-55, 302-341, 342-373 (protein)
chain: MDQESCKGRCTEGFNVDKKCQCDELCSYYQSCCTDYTAECKPQVTRGDVFTMPEDEFWGRTSAGTRQPQFISRDWHGVPGQVDAAMAGRIYISGMAPRPSLAKKQRFRHRNRKGYRSQRGHSRGRNQN
modifications: Synthetic peptide RCP-5
B6: RCP-7: recombinant polypeptide SEQ ID NO: 20; human vitronectin positions 1-55, 270-373, C274S (protein)
chain: MDQESCKGRCTEGFNVDKKCQCDELCSYYQSCCTDYTAECKPQVTRGDVFTMPEDESQEESEGSSLSAVFEHFAMMQRDSWEDIFELLFWGRTSAGTRQPQFISRDWHGVPGQVDAAMAGRIYISGMAPRPSLAKKQRFRHRNRKGYRSQRGHSRGRNQN
modifications: Synthetic peptide RCP-7
notes: human vitronectin positions 1-55, 270-373, C274S
B7: RCP-8: recombinant polypeptide SEQ ID NO: 21; human vitronectin positions 1-55, 270-373, 374-379, C274S (protein)
chain: MDQESCKGRCTEGFNVDKKCQCDELCSYYQSCCTDYTAECKPQVTRGDVFTMPEDESQEESEGSSLSAVFEHFAMMQRDSWEDIFELLFWGRTSAGTRQPQFISRDWHGVPGQVDAAMAGRIYISGMAPRPSLAKKQRFRHRNRKGYRSQRGHSRGRNQNSRRPSR
modifications: Synthetic peptide RCP-8
notes: human vitronectin positions 1-55, 270-373, 374-379, C274S
B8: RCP-1: recombinant polypeptide SEQ ID NO: 14; human vitronectin positions 1-55, 269-459, methionine on N-terminal (protein)
chain: MDQESCKGRCTEGFNVDKKCQCDELCSYYQSCCTDYTAECKPQVTRGDVFTMPEDEPSQEECEGSSLSAVFEHFAMMQRDSWEDIFELLFWGRTSAGTRQPQFISRDWHGVPGQVDAAMAGRIYISGMAPRPSLAKKQRFRHRNRKGYRSQRGHSRGRNQNSRRPSRATWLSLFSSEESNLGANNYDDYRMDWLVPATCEPIQSVFFFSGDKYYRVNLRTRRVDTVDPPYPRSIAQYWLGCPAPGHL
modifications: Synthetic peptide RCP-1
B9: RCP-10: recombinant polypeptide SEQ ID NO: 23; human vitronectin positions 1-55, 270-373, 374-399, C274S (protein)
chain: MDQESCKGRCTEGFNVDKKCQCDELCSYYQSCCTDYTAECKPQVTRGDVFTMPEDESQEESEGSSLSAVFEHFAMMQRDSWEDIFELLFWGRTSAGTRQPQFISRDWHGVPGQVDAAMAGRIYISGMAPRPSLAKKQRFRHRNRKGYRSQRGHSRGRNQNSRRPSRATWLSLFSSEESNLGANNYD
modifications: Synthetic peptide RCP-10
notes: human vitronectin positions 1-55, 270-373, 374-399, C274S
B10: RCP-6: recombinant polypeptide SEQ ID NO: 19; human vitronectin positions 1-55, 270-459, C274S, C411S, C453S (protein)
chain: MDQESCKGRCTEGFNVDKKCQCDELCSYYQSCCTDYTAECKPQVTRGDVFTMPEDESQEESEGSSLSAVFEHFAMMQRDSWEDIFELLFWGRTSAGTRQPQFISRDWHGVPGQVDAAMAGRIYISGMAPRPSLAKKQRFRHRNRKGYRSQRGHSRGRNQNSRRPSRATWLSLFSSEESNLGANNYDDYRMDWLVPATSEPIQSVFFFSGDKYYRVNLRTRRVDTVDPPYPRSIAQYWLGSPAPGHL
modifications: Synthetic peptide RCP-6
notes: human vitronectin positions 1-55, 270-459, C274S, C411S, C453S
B11: RCP-9: recombinant polypeptide SEQ ID NO: 22; human vitronectin positions 1-55, 270-373, 374-389, C274S (protein)
chain: MDQESCKGRCTEGFNVDKKCQCDELCSYYQSCCTDYTAECKPQVTRGDVFTMPEDESQEESEGSSLSAVFEHFAMMQRDSWEDIFELLFWGRTSAGTRQPQFISRDWHGVPGQVDAAMAGRIYISGMAPRPSLAKKQRFRHRNRKGYRSQRGHSRGRNQNSRRPSRATWLSLFSSE
modifications: Synthetic peptide RCP-9
notes: human vitronectin positions 1-55, 270-373, 374-389, C274S

Key:
iPS cells = assay: Growth evaluation, number of cells after 3 days; format: cell-based, human; conditions: Table 8 and FIG. 2
human iPS cells (Tic) = assay: Cell adhesiveness evaluation 1 (ALP activity, 24 hours); format: cell-based; conditions: Table 6
[1] = Aggregation after dialysis (removal of urea); format: physicochemical; conditions: Table 4
Protocol: For RCP-1 to RCP-10 and RCP-17, each of the purified polypeptide solutions was dialyzed using SLIDE-A-LIZER (trade name, 3.5 K MWCO.). Basically, by using a dialysis buffer (PBS, 1.5 M NaCl, 0.5 M L-arginine, 1 mM EDTA, pH 7.4) as an outer dialysate, urea was removed by stepwise dialysis. The concentration of the end-product of dialysis was calculated from the absorbence at 280 nm by using NANODROP (trade name, Thermo Fisher Scientific Inc.).
Furthermore, the indices of hydrophobicity determined for each of the amino acids were summed up, the obtained value was divided by the number of the amino acids, and the outcome was determined as the GRAVY value (see Kyte J., Doolittle R. F. (1982), J. Mol. Biol, 157: 105-132). The GRAVY value is an index of the hydrophilicity and hydrophobicity of a polypeptide calculated from the degree of hydrophobicity of the amino acids contained in each polypeptide. The greater the GRAVY value, the more the polypeptide is hydrophobic, and the smaller the GRAVY value, the more the polypeptide is hydrophilic. The results are shown in Table 4. • Whether or not aggregation was occurred was evaluated based on the scale of G, A, and B as shown below. The results are summarized in Table 4. • G: The formation of an aggregate was not observed. • A: The formation of particles having a particle size of about 100 nm was observed. • B: The formation of an aggregation of particles having a particle size of equal to or greater than 1 mm was visually observed.

Molecule | cell growth rate / growth ability (in words) (iPS cells) | cell adhesion rate of the iPS cells (in words) (human iPS cells (Tic)) | occurrence of aggregation (in words) [1]
B1 | growth ability higher than that of RCP-11 | the cell adhesion rate was higher | the occurrence of aggregation is inhibited
B2 | growth ability higher than that of RCP-11 | the cell adhesion rate was higher | the occurrence of aggregation is inhibited
B3 | growth ability higher than that of RCP-11 | the cell adhesion rate was higher | the occurrence of aggregation is inhibited
B4 | growth ability higher than that of RCP-11 | the cell adhesion rate was higher | the occurrence of aggregation is inhibited
B5 | growth ability higher than that of RCP-11 | the cell adhesion rate was higher | the occurrence of aggregation is inhibited
B6 | growth ability higher than that of RCP-11 | the cell adhesion rate was higher | the occurrence of aggregation is inhibited
B7 | growth ability higher than that of RCP-11 | the cell adhesion rate was higher | the occurrence of aggregation is inhibited
B8 | growth ability higher than that of RCP-11 | the cell adhesion rate was higher | –
B9 | growth ability higher than that of RCP-11 | the cell adhesion rate was higher | –
B10 | growth ability higher than that of RCP-11 | the cell adhesion rate was higher | –
B11 | growth ability higher than that of RCP-11 | the cell adhesion rate was higher | –
